The values below come from the supplement of paper PMC12819154, “High-throughput peptide-centric local stability assay extends protein–ligand identification to membrane proteins, tissues and bacteria” (Nature Structural & Molecular Biology, 2025).

By UniProt entry, the sequences of proteins in these tests, tags left out. Where a name states a change or a piece, a line headed by the entry shows the natural chain unless it says otherwise.
UniProt Q8BJ34: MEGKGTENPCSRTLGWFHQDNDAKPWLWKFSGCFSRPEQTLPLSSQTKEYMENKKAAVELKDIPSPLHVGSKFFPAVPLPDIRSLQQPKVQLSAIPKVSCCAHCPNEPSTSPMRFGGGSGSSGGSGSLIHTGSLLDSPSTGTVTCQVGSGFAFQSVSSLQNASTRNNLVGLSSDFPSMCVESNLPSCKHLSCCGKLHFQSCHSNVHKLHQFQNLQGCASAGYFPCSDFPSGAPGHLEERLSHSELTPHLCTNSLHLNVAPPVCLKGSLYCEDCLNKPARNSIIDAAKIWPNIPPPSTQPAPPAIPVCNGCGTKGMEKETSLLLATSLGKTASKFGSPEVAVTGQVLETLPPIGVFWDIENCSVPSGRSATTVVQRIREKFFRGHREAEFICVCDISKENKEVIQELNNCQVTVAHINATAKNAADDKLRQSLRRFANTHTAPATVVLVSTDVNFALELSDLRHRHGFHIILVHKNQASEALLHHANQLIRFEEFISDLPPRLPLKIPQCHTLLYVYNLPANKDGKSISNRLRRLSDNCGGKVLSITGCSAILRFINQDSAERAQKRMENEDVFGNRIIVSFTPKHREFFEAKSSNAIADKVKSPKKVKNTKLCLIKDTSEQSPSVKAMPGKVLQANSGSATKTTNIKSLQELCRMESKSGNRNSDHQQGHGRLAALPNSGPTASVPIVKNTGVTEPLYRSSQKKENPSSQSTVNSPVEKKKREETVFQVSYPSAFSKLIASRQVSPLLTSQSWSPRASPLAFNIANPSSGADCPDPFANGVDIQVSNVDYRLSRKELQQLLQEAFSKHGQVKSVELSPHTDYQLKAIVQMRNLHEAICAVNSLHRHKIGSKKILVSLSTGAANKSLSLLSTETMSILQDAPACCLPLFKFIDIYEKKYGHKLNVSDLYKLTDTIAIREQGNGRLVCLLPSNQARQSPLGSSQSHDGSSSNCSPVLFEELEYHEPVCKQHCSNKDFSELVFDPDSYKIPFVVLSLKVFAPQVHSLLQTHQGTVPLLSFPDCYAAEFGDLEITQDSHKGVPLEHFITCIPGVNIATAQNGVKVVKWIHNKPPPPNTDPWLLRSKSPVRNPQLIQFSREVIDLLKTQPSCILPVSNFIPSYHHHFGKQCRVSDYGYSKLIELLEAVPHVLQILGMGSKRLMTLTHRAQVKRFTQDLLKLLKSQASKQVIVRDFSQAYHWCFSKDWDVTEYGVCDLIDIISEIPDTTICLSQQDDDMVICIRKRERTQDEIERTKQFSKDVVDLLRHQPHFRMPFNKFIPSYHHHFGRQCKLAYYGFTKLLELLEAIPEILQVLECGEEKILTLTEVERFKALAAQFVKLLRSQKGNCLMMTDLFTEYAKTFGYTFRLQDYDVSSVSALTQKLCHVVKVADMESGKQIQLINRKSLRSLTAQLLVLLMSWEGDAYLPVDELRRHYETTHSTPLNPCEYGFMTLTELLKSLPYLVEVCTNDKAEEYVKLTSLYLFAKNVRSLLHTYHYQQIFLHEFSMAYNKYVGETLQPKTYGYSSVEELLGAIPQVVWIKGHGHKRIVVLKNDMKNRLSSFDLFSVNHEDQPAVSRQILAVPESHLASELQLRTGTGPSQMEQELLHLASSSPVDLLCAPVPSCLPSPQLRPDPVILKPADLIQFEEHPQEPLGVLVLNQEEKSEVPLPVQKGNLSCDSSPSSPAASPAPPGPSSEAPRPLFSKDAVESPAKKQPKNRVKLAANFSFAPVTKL
UniProt Q8BTY1: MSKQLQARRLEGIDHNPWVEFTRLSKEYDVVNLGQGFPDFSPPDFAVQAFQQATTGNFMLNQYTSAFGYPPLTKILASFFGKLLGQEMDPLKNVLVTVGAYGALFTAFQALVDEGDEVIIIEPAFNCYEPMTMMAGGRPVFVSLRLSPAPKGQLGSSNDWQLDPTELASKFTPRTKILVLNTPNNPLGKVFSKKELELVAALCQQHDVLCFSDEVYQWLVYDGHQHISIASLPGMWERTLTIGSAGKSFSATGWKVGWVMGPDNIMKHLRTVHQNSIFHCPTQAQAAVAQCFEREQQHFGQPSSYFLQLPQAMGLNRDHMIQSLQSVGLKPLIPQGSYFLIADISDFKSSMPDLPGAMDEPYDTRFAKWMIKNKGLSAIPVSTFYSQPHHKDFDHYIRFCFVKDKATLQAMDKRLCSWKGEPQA
UniProt Q8BM72: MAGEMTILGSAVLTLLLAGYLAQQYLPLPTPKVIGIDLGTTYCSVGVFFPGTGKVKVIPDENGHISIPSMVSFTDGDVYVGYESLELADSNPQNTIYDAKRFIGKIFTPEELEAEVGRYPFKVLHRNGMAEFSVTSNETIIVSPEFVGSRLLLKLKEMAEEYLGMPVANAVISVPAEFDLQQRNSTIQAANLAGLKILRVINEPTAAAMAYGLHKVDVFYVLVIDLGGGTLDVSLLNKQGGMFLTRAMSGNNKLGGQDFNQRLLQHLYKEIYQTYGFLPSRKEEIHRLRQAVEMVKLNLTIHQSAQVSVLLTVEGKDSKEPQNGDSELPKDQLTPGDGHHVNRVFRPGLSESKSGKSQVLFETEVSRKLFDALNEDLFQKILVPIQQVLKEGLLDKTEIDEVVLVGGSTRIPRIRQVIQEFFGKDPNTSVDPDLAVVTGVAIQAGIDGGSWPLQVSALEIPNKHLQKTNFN
UniProt Q8BIY3: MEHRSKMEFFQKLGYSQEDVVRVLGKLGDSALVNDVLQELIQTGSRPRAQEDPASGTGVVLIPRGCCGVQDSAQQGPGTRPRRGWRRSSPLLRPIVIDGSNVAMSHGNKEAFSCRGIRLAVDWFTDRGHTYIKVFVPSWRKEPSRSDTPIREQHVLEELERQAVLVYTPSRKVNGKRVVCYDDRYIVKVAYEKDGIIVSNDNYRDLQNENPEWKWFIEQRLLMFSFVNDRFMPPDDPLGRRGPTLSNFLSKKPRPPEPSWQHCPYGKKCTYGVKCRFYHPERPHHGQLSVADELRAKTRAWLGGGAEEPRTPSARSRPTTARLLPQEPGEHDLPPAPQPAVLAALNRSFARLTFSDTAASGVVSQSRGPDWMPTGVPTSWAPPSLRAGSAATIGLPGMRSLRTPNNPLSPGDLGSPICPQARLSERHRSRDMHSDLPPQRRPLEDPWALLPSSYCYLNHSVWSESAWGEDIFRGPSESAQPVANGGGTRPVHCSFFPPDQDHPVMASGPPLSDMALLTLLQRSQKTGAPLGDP
UniProt Q8BJM5: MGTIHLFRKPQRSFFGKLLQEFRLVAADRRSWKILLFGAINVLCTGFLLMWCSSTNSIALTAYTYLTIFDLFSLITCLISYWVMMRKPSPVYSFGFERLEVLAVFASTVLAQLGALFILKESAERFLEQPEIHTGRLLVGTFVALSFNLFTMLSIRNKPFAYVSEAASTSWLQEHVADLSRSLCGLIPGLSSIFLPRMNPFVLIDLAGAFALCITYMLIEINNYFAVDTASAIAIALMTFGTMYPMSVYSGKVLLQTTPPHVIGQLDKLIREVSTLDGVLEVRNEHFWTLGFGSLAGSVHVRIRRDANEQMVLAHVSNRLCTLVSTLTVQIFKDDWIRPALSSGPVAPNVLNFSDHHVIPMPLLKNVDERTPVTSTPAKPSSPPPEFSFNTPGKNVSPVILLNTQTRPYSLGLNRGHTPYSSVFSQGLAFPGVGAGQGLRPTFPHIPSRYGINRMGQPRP
UniProt Q8BKH7, whole entry: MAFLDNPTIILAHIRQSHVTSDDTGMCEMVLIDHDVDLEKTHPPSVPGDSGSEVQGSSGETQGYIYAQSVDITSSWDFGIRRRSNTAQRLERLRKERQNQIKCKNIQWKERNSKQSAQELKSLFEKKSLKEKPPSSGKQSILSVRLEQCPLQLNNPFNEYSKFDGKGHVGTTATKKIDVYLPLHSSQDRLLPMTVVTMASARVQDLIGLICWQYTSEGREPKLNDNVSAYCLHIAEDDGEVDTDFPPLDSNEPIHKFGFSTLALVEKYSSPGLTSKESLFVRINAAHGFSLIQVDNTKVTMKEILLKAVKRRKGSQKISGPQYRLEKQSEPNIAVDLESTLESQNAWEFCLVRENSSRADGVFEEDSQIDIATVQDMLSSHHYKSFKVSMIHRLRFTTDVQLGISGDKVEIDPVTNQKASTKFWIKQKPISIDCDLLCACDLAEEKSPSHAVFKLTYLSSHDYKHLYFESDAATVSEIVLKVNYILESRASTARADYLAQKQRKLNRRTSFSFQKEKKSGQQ
UniProt Q8BM75: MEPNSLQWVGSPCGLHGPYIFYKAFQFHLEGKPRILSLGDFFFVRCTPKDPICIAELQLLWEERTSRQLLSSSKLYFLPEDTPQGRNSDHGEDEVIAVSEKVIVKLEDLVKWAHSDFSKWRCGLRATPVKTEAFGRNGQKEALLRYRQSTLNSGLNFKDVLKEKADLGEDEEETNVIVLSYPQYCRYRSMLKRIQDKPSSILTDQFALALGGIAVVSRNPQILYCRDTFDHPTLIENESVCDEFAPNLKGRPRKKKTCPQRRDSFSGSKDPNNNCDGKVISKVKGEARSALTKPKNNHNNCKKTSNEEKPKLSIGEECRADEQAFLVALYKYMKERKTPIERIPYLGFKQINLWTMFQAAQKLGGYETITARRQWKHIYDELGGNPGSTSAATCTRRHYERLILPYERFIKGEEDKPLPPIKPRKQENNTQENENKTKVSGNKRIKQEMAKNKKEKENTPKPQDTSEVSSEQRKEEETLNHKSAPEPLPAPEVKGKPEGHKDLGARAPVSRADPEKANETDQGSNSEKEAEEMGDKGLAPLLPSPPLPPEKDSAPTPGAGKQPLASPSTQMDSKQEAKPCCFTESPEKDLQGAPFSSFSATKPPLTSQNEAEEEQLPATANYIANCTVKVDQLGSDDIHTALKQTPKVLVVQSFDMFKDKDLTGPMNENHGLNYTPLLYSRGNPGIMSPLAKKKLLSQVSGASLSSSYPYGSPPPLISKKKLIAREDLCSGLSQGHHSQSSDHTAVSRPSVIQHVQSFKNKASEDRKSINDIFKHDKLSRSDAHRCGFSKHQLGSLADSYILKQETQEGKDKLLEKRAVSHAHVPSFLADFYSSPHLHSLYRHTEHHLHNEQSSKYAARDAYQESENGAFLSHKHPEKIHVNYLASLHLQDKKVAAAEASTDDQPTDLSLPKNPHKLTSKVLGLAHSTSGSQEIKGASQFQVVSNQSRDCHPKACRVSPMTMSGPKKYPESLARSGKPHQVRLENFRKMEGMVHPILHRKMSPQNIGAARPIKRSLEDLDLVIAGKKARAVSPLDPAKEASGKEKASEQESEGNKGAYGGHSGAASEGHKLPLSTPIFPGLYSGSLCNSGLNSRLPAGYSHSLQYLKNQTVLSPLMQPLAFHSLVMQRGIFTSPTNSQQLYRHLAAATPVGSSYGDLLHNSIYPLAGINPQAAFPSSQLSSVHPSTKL
UniProt Q8BTW8: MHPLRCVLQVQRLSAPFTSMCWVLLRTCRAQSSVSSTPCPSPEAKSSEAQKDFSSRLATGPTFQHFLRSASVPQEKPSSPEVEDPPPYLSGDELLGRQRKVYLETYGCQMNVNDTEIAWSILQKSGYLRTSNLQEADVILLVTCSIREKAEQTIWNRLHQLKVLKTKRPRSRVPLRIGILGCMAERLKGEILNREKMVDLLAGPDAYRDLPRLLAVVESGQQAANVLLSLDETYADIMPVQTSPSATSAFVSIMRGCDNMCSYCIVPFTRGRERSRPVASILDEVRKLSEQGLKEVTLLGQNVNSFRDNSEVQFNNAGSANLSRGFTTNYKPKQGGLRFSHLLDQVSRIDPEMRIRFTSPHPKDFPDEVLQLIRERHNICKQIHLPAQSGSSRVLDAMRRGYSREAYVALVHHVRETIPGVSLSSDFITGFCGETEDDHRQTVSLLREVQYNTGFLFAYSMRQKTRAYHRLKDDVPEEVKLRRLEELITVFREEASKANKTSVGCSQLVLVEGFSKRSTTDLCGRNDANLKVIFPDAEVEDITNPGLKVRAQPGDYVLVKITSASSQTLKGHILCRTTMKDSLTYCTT
UniProt Q8BKZ9: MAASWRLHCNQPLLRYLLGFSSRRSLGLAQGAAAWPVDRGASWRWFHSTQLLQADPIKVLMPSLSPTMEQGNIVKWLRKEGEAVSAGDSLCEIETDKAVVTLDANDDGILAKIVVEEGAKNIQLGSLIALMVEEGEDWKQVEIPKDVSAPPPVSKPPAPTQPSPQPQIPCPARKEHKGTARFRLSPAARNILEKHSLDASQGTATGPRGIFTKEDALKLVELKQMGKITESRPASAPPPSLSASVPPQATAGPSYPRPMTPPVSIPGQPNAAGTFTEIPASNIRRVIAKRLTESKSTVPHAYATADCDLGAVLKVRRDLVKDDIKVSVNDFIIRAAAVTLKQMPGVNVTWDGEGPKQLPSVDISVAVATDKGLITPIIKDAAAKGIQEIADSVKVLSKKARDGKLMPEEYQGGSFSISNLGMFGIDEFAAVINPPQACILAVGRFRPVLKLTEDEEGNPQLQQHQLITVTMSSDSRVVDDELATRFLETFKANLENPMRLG

Some of the results follow. Most values lie at the level of the controls, where differences are scatter.

Compound in the assay: CN[C@@H]1C[C@H]2O[C@@](C)([C@@H]1OC)n1c3ccccc3c3c4c(c5c6ccccc6n2c5c31)C(=O)NC4 [staurosporine]
In words: log2 fold change of tryptic peptide abundance, ligand vs vehicle (limited proteolysis) (log2 ratio); higher = more trypsin-susceptible (destabilized). The settings on record: ligand concentration: 20 uM; sample: mouse liver crude lysate; replicate design: treated separately.
As for “UniProt Q8BSQ9 (peptide sequence: LWTMPISSVR, peptide start residue: 1075)”, the log2 fold change was 0.25. Next, “UniProt Q8BQZ4 (peptide sequence: SEVVLEGK, peptide start residue: 623)”: -0.338. Take “UniProt Q8BRV5 (peptide sequence: DSTEEKSPR, peptide start residue: 193)”: the log2 fold change was -0.638. In the case of “UniProt Q8BJ34 (peptide sequence: IIVSFTPK, peptide start residue: 577)”, the log2 fold change was determined as 0.293. With “UniProt Q8BTY1 (peptide sequence: ATLQAMDKR, peptide start residue: 406)”, the log2 fold change came to 0.247. For the target “UniProt Q8BM72 (peptide sequence: EPQNGDSELPKDQLTPGDGHHVNR, peptide start residue: 320)”, the log2 fold change is 0.231. Consider “UniProt Q8BJ56 (peptide sequence: LGDHLPSR, peptide start residue: 387)”, for which the log2 fold change is 0.257. As for “UniProt Q8BP48 (peptide sequence: LFHTAPNVPHYAK, peptide start residue: 299)”, the log2 fold change was found to be 0.195. As to “UniProt Q8BL99 (peptide sequence: SSFARSFDR, peptide start residue: 945)”, the log2 fold change was -0.334.

Consider “UniProt Q8BV13 (peptide sequence: ECPPHTEQR, peptide start residue: 239)”, for which the log2 fold change is -0.337.

For “UniProt Q8BV66 (peptide sequence: GSITHQILVGCDEDGISDKYR, peptide start residue: 207)”, the log2 fold change was 0.284. In the case of “UniProt Q8BIY3 (peptide sequence: LGYSQEDVVR, peptide start residue: 13)” it was 0.00468; in that of “UniProt Q8BV79 (peptide sequence: NEDGSLKR, peptide start residue: 1295)”, -0.258. Consider “UniProt Q8BIF9 (peptide sequence: IHTGEKPYTCPDCGR, peptide start residue: 143)”, for which the log2 fold change worked out at 0.251. On to “UniProt Q8BJM5 (peptide sequence: GTIHLFR, peptide start residue: 2)”, for which the log2 fold change came to 0.153. Next, “UniProt Q8BKH7 (peptide sequence: INAAHGFSLIQVDNTK, peptide start residue: 283)”: -0.153. Regarding “UniProt Q8BTI8 (peptide sequence: MVQASSQSLLPPAQDRPR, peptide start residue: 2386)”, the log2 fold change was -0.409.

Consider “UniProt Q8BM75 (peptide sequence: VSPMTMSGPK, peptide start residue: 957)”, for which the log2 fold change was 0.224. Next, “UniProt Q8BTW8 (peptide sequence: LATGPTFQHFLR, peptide start residue: 57)”: 0.231; “UniProt Q8BJL0 (peptide sequence: KWSFLLEEHNK, peptide start residue: 330)”: 0.261; “UniProt Q8BKZ9 (peptide sequence: GLITPIIKDAAAK, peptide start residue: 372)”: 0.135.

“UniProt Q8BNX1 (peptide sequence: VLLSHQDLLR, peptide start residue: 62)”: the log2 fold change turned out to be 0.42.

On to “UniProt Q8BSY0 (peptide sequence: KVYEEVLNVTPNDGFAK, peptide start residue: 458)”, for which the log2 fold change is -0.322.

Regarding “UniProt Q8BNN1 (peptide sequence: LWGSGGQPWEPPADDMHR, peptide start residue: 269)”, the log2 fold change came out at 0.14.
